Data as given in the supplement of paper PMC6078165.

Tested on: BT20
Assay: relative JC-1 red fluorescence (viability) vs pre-drug, coculture with fibroblast (fraction); higher = more viable cancer cells
Protocol: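 JC-1 labelled TNBC cells cocultured 1:1 (1,500 cells each) with CellTrace Violet stained primary or stromal fibroblasts in 384-well plates in FluoroBrite medium, treated with one of 42 anticancer drugs at 0.1, 1, 10 or 100 uM. JC-1 red fluorescence (mitochondrial integrity in cancer cells only) was read by plate reader every 8 h for 72 h. Values are normalised to each well's pre-drug value. The stock of one drug was tenfold lower, so its dose labels may be too high.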

CN(Cc1cnc2nc(N)nc(N)c2n1)c1ccc(C(=O)N[C@@H](CCC(=O)O)C(=O)O)cc1 [Methotrexate]
relative JC-1 red fluorescence
Settings | 8 h | 16 h | 24 h | 32 h | 40 h | 48 h | 56 h | 64 h | 72 h
10 µM, coculture fibroblast: C12385 | 0.918 | 0.8469 | 0.8445 | 0.8181 | 0.781 | 0.762 | 0.74 | 0.7229 | 0.7072
10 µM, coculture fibroblast: H6013 | 0.917 | 0.939 | 0.921 | 0.811 | 0.8937 | 0.826 | 0.82 | 0.865 | 0.941
10 µM, coculture fibroblast: H6019 | 0.926 | 0.898 | 0.899 | 0.846 | 0.809 | 0.793 | 0.776 | 0.764 | 0.759
10 µM, coculture fibroblast: H6076 | 0.955 | 0.882 | 0.831 | 0.7999 | 0.77596 | 0.745 | 0.745 | 0.746 | 0.746
10 µM, coculture fibroblast: H6231 | 0.761 | 0.9529 | 0.8312 | 0.7652 | 0.7103 | 0.663 | 0.621 | 0.603 | 0.5584
10 µM, coculture fibroblast: HADF | 0.985 | 0.855 | 0.8376 | 0.7891 | 0.775 | 0.739 | 0.742 | 0.726 | 0.699
10 µM, coculture fibroblast: HCFa | 0.913 | 0.867 | 0.846 | 0.799 | 0.768 | 0.735 | 0.713 | 0.696 | 0.666
10 µM, coculture fibroblast: HCPF | 0.761 | 0.893 | 0.809 | 0.745 | 0.706 | 0.663 | 0.609 | 0.597 | 0.56
10 µM, coculture fibroblast: HHSteC | 0.963 | 0.846 | 0.747 | 0.857 | 0.896 | 0.931 | 0.907 | 0.873 | 0.834
10 µM, coculture fibroblast: HMF | 0.86066 | 0.942 | 0.808 | 0.73 | 0.665 | 0.6015 | 0.5474 | 0.509 | 0.471
10 µM, coculture fibroblast: HPFa | 0.938 | 0.851 | 0.857 | 0.781 | 0.76 | 0.728 | 0.721 | 0.706 | 0.677
10 µM, coculture fibroblast: HUF | 0.916 | 0.846 | 0.827 | 0.756 | 0.704 | 0.664 | 0.642 | 0.624 | 0.609
10 µM, coculture fibroblast: Hs5 | 0.931 | 0.9 | 0.829 | 0.779 | 0.748 | 0.719 | 0.704 | 0.684 | 0.6805
10 µM, coculture fibroblast: Hs27A | 0.782 | 0.829 | 0.9577 | 0.9788 | 0.923 | 0.923 | 0.902 | 0.886 | 0.851
10 µM, coculture fibroblast: Hs343T | 0.918 | 0.903 | 0.784 | 0.726 | 0.664 | 0.599 | 0.5169 | 0.481 | 0.429
10 µM, coculture fibroblast: WS1 | 0.873 | 0.772 | 0.744 | 0.675 | 0.624 | 0.599 | 0.574 | 0.548 | 0.533
100 µM, coculture fibroblast: C12385 | 0.909 | 0.831 | 0.805 | 0.747 | 0.704 | 0.673 | 0.6474 | 0.62 | 0.598
100 µM, coculture fibroblast: H6013 | 0.92221 | 0.886 | 0.8455 | 0.7956 | 0.75731 | 0.741 | 0.74026 | 0.7211 | 0.71
100 µM, coculture fibroblast: H6019 | 0.867 | 0.802 | 0.782 | 0.71 | 0.665 | 0.641 | 0.602 | 0.5724 | 0.557
100 µM, coculture fibroblast: H6076 | 0.931 | 0.849 | 0.7748 | 0.733 | 0.726 | 0.694 | 0.695 | 0.696 | 0.684
100 µM, coculture fibroblast: H6231 | 0.9265 | 0.8843 | 0.7654 | 0.711 | 0.6662 | 0.616 | 0.577 | 0.554 | 0.536
100 µM, coculture fibroblast: HADF | 0.963 | 0.912 | 0.847 | 0.805 | 0.768 | 0.712 | 0.684 | 0.656 | 0.624
100 µM, coculture fibroblast: HCFa | 0.903 | 0.854 | 0.8232 | 0.7598 | 0.7225 | 0.6846 | 0.66 | 0.642 | 0.615
100 µM, coculture fibroblast: HCPF | 0.934 | 0.874 | 0.79 | 0.734 | 0.686 | 0.638 | 0.593 | 0.564 | 0.522
100 µM, coculture fibroblast: HHSteC | 0.895 | 0.884 | 0.891 | 0.827 | 0.793 | 0.76 | 0.749 | 0.731 | 0.714
100 µM, coculture fibroblast: HMF | 0.9565 | 0.8563 | 0.756 | 0.696 | 0.657 | 0.61 | 0.578 | 0.558 | 0.522
100 µM, coculture fibroblast: HPFa | 0.9378 | 0.871 | 0.864 | 0.788 | 0.764 | 0.734 | 0.715 | 0.695 | 0.665
100 µM, coculture fibroblast: HUF | 0.904 | 0.839 | 0.822 | 0.751 | 0.708 | 0.673 | 0.663 | 0.657 | 0.649
100 µM, coculture fibroblast: Hs5 | 0.972 | 0.8932 | 0.8304 | 0.7809 | 0.738 | 0.699 | 0.677 | 0.668 | 0.655
100 µM, coculture fibroblast: Hs27A | 0.781 | 0.951 | 0.813 | 0.921 | 0.898 | 0.894 | 0.888 | 0.885 | 0.856
100 µM, coculture fibroblast: Hs343T | 0.926 | 0.882 | 0.796 | 0.723 | 0.668 | 0.607 | 0.556 | 0.531 | 0.495
100 µM, coculture fibroblast: WS1 | 0.8852 | 0.804 | 0.784 | 0.721 | 0.676 | 0.641 | 0.619 | 0.592 | 0.578

The reference is the same well before dosing, and untreated signal decays as well.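 Fibroblast labels denote human fibroblasts, mainly primary ones from uterus (C12385, HUF), lung (H6013), bone (Hs27A), adrenal (HADF) and skin (WS1), plus mammary HMF and breast cancer-associated Hs343T. Cancer cells are basal-like or mesenchymal-like triple-negative breast cancer lines. A hit is a response shift exceeding 3x replicate standard deviation. The tissue of the other fibroblasts is not given here.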
